Test results reported in patent US20130039933A1.
No constants are given. Whether binding was seen depends on the method and setting. Some binding calls cover weakened binding; strength is not graded here. Where a sequence is shown, tags or fusion partners need not be part of it.

Chains of the proteins cited; added tags and fusions are not shown. Lines headed by an entry give the natural chain unless they say otherwise; changes in a name come on top.
UniProt P04386: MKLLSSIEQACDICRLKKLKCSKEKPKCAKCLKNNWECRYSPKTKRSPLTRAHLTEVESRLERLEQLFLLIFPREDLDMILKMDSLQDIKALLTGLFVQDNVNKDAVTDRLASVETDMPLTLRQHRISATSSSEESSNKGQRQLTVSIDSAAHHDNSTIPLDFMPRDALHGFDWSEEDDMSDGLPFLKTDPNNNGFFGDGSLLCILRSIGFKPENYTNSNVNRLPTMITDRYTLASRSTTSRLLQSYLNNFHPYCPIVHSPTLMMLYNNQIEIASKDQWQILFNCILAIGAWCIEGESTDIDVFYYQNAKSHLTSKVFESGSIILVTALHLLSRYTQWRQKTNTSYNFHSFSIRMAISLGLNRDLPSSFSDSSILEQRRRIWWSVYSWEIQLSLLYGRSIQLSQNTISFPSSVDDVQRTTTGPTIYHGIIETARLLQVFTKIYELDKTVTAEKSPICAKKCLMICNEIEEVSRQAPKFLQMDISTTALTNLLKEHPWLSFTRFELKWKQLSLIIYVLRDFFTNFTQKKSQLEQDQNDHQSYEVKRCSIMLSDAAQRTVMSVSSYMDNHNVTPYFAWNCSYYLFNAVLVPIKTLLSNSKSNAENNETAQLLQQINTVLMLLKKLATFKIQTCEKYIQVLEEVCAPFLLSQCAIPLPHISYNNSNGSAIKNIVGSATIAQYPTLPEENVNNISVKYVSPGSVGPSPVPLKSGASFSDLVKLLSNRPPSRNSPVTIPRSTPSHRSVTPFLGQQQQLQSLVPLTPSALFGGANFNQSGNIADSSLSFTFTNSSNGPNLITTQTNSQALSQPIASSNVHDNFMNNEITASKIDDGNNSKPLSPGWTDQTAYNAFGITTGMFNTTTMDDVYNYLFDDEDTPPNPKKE

Legend:
[1] = target: T1, RPN1 (Ribophorin I) fused to the GAL4 activation domain (yeast; human) (UniProt P04843); assay: yeast two-hybrid screen with full length TREX1 as bait
T1 sequence (looked up): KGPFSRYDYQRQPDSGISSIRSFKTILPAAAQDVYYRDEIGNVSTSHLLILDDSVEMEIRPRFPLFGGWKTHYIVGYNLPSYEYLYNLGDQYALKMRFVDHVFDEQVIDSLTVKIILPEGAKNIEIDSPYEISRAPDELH

[2] = target: T1, RPN1 (Ribophorin I) fused to the GAL4 activation domain (yeast; human); assay: yeast two-hybrid

- binding [1]: binds
- binding [2]: binds
Substance: Full length TREX1 fused to the GAL4 binding domain (pGBKT7-TREX1) (from UniProt P04386 1-147; Q9NSU2 1-369) (enzyme)
